Results published in PubChem BioAssay AID330 (DTP/NCI, 2004).
The list is a part of this screen's results and no random one: it gathers tests that were run many times, whatever their T/C, doses with no T/C, and many T/C values between a quarter and a half above the control. Other doses and runs of a compound stand elsewhere. T/C is the treated group as % of the vehicle group. Some doses have a count of surviving animals in place of a T/C: the source holds a T/C of zero for them, seemingly a mark for toxic or unscored doses. Some survivor counts are full or nearly so, which does not show that the dose was tolerated: the source hardly ever lists a survival T/C far under the control, and the zero likely stands for such cases as well. Survivors were counted at the toxicity check, usually on the fifth day, unless a day is given; later deaths do not show. Schedule codes are those of the source, taken here to give the interval after Q, in days (D) or hours (H), and the number of doses after X. Some doses were run more than once; the values are given in rising order. Where survival is the endpoint, this PubChem deposit counts one and a half times the control or more as active, and values a quarter to a half above the control carry no call in these data; other NCI protocols may use other cut-offs. Some T/C values are followed by the survivors on the day toxicity was checked, most often the fifth; where none is given, no animal had died by that day.

Test system: P388 leukemia ip, CD2F1 mice, survival T/C
Assay: NCI In Vivo Anticancer Drug Screen. Data for tumor model P388 Leukemia (intraperitoneal) in CD2F1 (CDF1) mice
Settings: T/C endpoint: median survival time, higher T/C = longer survival
[1] = dose: 240.0 mg/kg/injection, schedule: Q01DX005 (ip), vehicle: saline with Tween-80
[2] = dose: 100.0 mg/kg/injection, schedule: Q01DX009 (ip), vehicle: saline with Tween-80
[3] = dose: 200.0 mg/kg/injection, schedule: Q01DX009 (ip), vehicle: saline with Tween-80
[4] = dose: 200.0 mg/kg/injection, schedule: Q01DX005 (ip), vehicle: saline with Tween-80
[5] = dose: 200.0 mg/kg/injection, schedule: Q01DX009 (ip), vehicle: Klucel (hydroxypropylcellulose) (HPC)

## Cc1c2cc[n+](CCO)cc2c(C)c2c1[nH]c1ccc(O)cc12
dose: 6.25 mg/kg/injection, schedule: Q04DX003 (ip), vehicle: saline
  T/C: 145 % of control
dose: 12.5 mg/kg/injection, schedule: Q04DX003 (ip), vehicle: saline
  survivor count: 5 of 6
dose: 25.0 mg/kg/injection, schedule: Q04DX003 (ip), vehicle: saline
  survivor count: 2 of 6
dose: 50.0 mg/kg/injection, schedule: Q04DX003 (ip), vehicle: saline
  survivor count: 6 of 6
dose: 100.0 mg/kg/injection, schedule: Q04DX003 (ip), vehicle: saline
  survivor count: 6 of 6
dose: 200.0 mg/kg/injection, schedule: Q04DX003 (ip), vehicle: saline
  survivor count: 0 of 6

## CCN(CC)C(C)(C)C(=O)/C=C/c1ccc(C)cc1
[1]
  survivor count: 6 of 6

## Nc1ccc(C2C(=[N+]([O-])[O-])C=C([N+](=O)[O-])c3[nH]o[n+](=O)c32)cc1 (stereo not drawn)
dose: 200.0 mg/kg/injection, schedule: Q01DX001 (ip), vehicle: saline with Tween-80
  survivor count: 6 of 6

## Cc1ccc(S(=O)(=O)NNC(=O)c2nc3ccccc3c(=O)[nH]2)cc1
[1]
  survivor count: 6 of 6

## CN(c1ccccc1)P(=O)(N1CC1)N1CC1
dose: 16.5 mg/kg/injection, schedule: Q04DX003 (ip), vehicle: saline with Tween-80
  T/C: 140 % of control
dose: 25.0 mg/kg/injection, schedule: Q01DX009 (ip), vehicle: saline sonified
  T/C: 127 % of control
dose: 50.0 mg/kg/injection, schedule: Q01DX009 (ip), vehicle: saline sonified
  survivor count: 6 of 6
dose: 50.0 mg/kg/injection, schedule: Q04DX003 (ip), vehicle: saline with Tween-80
  survivor count: 5 of 6
dose: 100.0 mg/kg/injection, schedule: Q04DX003 (ip), vehicle: saline with Tween-80
  survivor count: 3 of 6

## COC(=O)C(O)(/C(=N\O)c1ccccc1)c1ccccc1 (stereo not drawn)
[1]
  survivor count: 6 of 6

## CC(/C=C/c1ccccc1)=Nc1ccc(Cl)cc1
[2]
  T/C: 132 % of control
[3]
  T/C: 132 % of control [4 of 6 alive]
  survivor count: 3 of 6

## CC1(C)S(=O)(=O)OCCOS1(=O)=O
dose: 15.0 mg/kg/injection, schedule: Q01DX005 (ip), vehicle: Klucel (hydroxypropylcellulose) (HPC)
  T/C: 146 % of control
dose: 30.0 mg/kg/injection, schedule: Q01DX005 (ip), vehicle: Klucel (hydroxypropylcellulose) (HPC)
  T/C: 131, 135, 138 % of control
dose: 60.0 mg/kg/injection, schedule: Q01DX005 (ip), vehicle: Klucel (hydroxypropylcellulose) (HPC)
  survivor count: 3 of 6
dose: 120.0 mg/kg/injection, schedule: Q01DX005 (ip), vehicle: Klucel (hydroxypropylcellulose) (HPC)
  survivor count: 0 of 6
dose: 240.0 mg/kg/injection, schedule: Q01DX005 (ip), vehicle: Klucel (hydroxypropylcellulose) (HPC)
  survivor count: 0 of 6

## CC(C)C(N)C(=O)Nc1nncs1 (stereo not drawn)
dose: 100.0 mg/kg/injection, schedule: Q04DX002 (ip), vehicle: saline
  T/C: 127 % of control
dose: 200.0 mg/kg/injection, schedule: Q04DX002 (ip), vehicle: saline
  T/C: 128 % of control

## c1ccc(-c2nc3ccccc3nc2-c2ccc(-c3nc4ccccc4nc3-c3ccccc3)cc2)cc1
dose: 25.0 mg/kg/injection, schedule: Q01DX009 (ip), vehicle: saline with Tween-80
  survivor count: 6 of 6

## CC1CC(C)C(C)C(C)(CN(C)C)C1 (stereo not drawn)
dose: 100.0 mg/kg/injection, schedule: Q01DX005 (ip), vehicle: saline with Tween-80
  survivor count: 3 of 5
[4]
  survivor count: 0 of 5

## CC(=O)Nc1cc2cc(NS(=O)(=O)c3cc(C(F)(F)F)cc(C(F)(F)F)c3)ccc2oc1=O
dose: 6.0 mg/kg/injection, schedule: Q01DX005 (ip), vehicle: Klucel + Tween-80
  survivor count: 6 of 6
dose: 25.0 mg/kg/injection, schedule: Q01DX005 (ip), vehicle: Klucel + Tween-80
  survivor count: 6 of 6
dose: 50.0 mg/kg/injection, schedule: Q01DX005 (ip), vehicle: Klucel + Tween-80
  survivor count: 6 of 6
dose: 100.0 mg/kg/injection, schedule: Q01DX005 (ip), vehicle: Klucel + Tween-80
  survivor count: 3 of 6
dose: 200.0 mg/kg/injection, schedule: Q01DX005 (ip), vehicle: Klucel + Tween-80
  survivor count: 2 of 6

## CCCC/C=C/[Se]c1ccccc1
dose: 50.0 mg/kg/injection, schedule: Q01DX009 (ip), vehicle: saline with Tween-80
  T/C: 135 % of control
[2]
  T/C: 129 % of control
[3]
  survivor count: 2 of 6 and 4 of 6

## CC1CCN(SSc2nc3ccccc3s2)CC1
dose: 400.0 mg/kg/injection, schedule: Q01DX009 (ip), vehicle: saline with Tween-80
  T/C: 128 % of control

## CCC1(O)CC(OC2CC(NC)C(OC3CC(O)C(OC4CC(O)C(O)C(C)O4)C(C)O3)C(C)O2)c2c(cc3c(c2O)C(=O)c2c(O)ccc(O)c2C3=O)C1C(=O)OC (stereo not drawn)
dose: 25.0 mg/kg/injection, schedule: Q04DX003 (ip), vehicle: Klucel (hydroxypropylcellulose) (HPC)
  T/C: 134 % of control
dose: 50.0 mg/kg/injection, schedule: Q04DX003 (ip), vehicle: Klucel (hydroxypropylcellulose) (HPC)
  T/C: 132 % of control [3 of 6 alive]

## Cc1c2cc[n+](C)c(C)c2cc2c1[nH]c1ccccc12
dose: 80.0 mg/kg/injection, schedule: Q04DX002 (ip), vehicle: water
  survivor count: 6 of 6
dose: 160.0 mg/kg/injection, schedule: Q04DX002 (ip), vehicle: water
  survivor count: 0 of 6

## CC[C@@]1(O)C[C@H](OC2CC(N(C)C)C(OC3CC(O)C(OC4CC(O)C(O)C(C)O4)C(C)O3)C(C)O2)c2c(cc3c(c2O)C(=O)c2c(O)ccc(O)c2C3=O)[C@H]1C(=O)OC (stereo partly drawn)
dose: 0.67 mg/kg/injection, schedule: Q04DX003 (ip), vehicle: water
  T/C: 138 % of control
dose: 1.0 mg/kg/injection, schedule: Q04DX003 (ip), vehicle: water
  T/C: 148 % of control
dose: 15.0 mg/kg/injection, schedule: Q01DX001 (ip), vehicle: other
  survivor count: 2 of 6

## Cc1ccccc1CC1c2[nH]c3ccccc3c2CCN1C (stereo not drawn)
[1]
  survivor count: 3 of 6

## CS(=O)(=O)N1CC=CCS1=O (stereo not drawn)
dose: 50.0 mg/kg/injection, schedule: Q01DX009 (ip), vehicle: Klucel (hydroxypropylcellulose) (HPC)
  survivor count: 0 of 6
dose: 100.0 mg/kg/injection, schedule: Q01DX009 (ip), vehicle: Klucel (hydroxypropylcellulose) (HPC)
  survivor count: 0 of 6
[5]
  survivor count: 0 of 6

## O=C(c1ccccc1)C(CN1CCOCC1)CN1CCOCC1
dose: 200.0 mg/kg/injection, schedule: Q01DX009 (ip), vehicle: saline
  survivor count: 0 of 6

## Cc1cc(=O)oc2c3c4c(cc12)CCCN4CCC3
dose: 400.0 mg/kg/injection, schedule: Q04DX003 (ip), vehicle: Klucel (hydroxypropylcellulose) (HPC)
  survivor count: 4 of 6

## C=CCn1c(=O)n(C)c(=O)c2[nH]c(Cl)nc21
[5]
  survivor count: 3 of 6

## Cc1cc2c(cc1C)n1c(=O)n(C)c(=O)c(C#N)c1n2C
dose: 30.0 mg/kg/injection, schedule: Q01DX005 (ip), vehicle: saline with Tween-80
  survivor count: 6 of 6
dose: 60.0 mg/kg/injection, schedule: Q01DX005 (ip), vehicle: saline with Tween-80
  survivor count: 6 of 6
dose: 120.0 mg/kg/injection, schedule: Q01DX005 (ip), vehicle: saline with Tween-80
  survivor count: 6 of 6
[1]
  survivor count: 6 of 6

## NC1=NN(O)C2=CC(F)C=CC2=N1 (stereo not drawn)
[5]
  T/C: 127 % of control

## C1CCNCC1.CC(=O)[C-](C(C)=O)c1ccccc1.CC(=O)[C-](C(C)=O)c1ccccc1.CC(=O)[C-](C(C)=O)c1ccccc1.CC(=O)[C-](C(C)=O)c1ccccc1.[Eu+3]
dose: 200.0 mg/kg/injection, schedule: Q04DX002 (ip), vehicle: Klucel (hydroxypropylcellulose) (HPC)
  survivor count: 6 of 6

## c1ccc(CCC(Cc2cccnc2)c2ccccn2)nc1 (stereo not drawn)
dose: 400.0 mg/kg/injection, schedule: Q04DX002 (ip), vehicle: saline
  survivor count: 1 of 6

## CCN(CC)CCNc1ccc(COC(C)=O)c2sc3ccccc3c(=O)c12
dose: 12.5 mg/kg/injection, schedule: Q01DX005 (ip), vehicle: saline with Tween-80
  T/C: 129 % of control
dose: 25.0 mg/kg/injection, schedule: Q01DX005 (ip), vehicle: saline with Tween-80
  T/C: 125 and 145 % of control
dose: 50.0 mg/kg/injection, schedule: Q01DX005 (ip), vehicle: saline with Tween-80
  survivor count: 5 of 6

## CC(C)CC(NC(=O)OC(C)(C)C)C(=O)ON1C(=O)CCC1=O (stereo not drawn)
[4]
  survivor count: 1 of 6

## COc1ccc2c(c1OC)C[N+]1(C)CCc3cc4c(cc3C1=C2)OCO4 (stereo not drawn)
dose: 20.0 mg/kg/injection, schedule: Q01DX009 (ip), vehicle: water
  survivor count: 3 of 6
